Results from paper doi:10.1101/2020.08.04.236463.
No constants are given. Whether binding was seen depends on the method and setting. Some results given as binding are weak or reduced against the parent protein; the word gives no strength.

Biological target: human NHE1 R651-D692 (H2) (human) (UniProt P19634)
Assay: NMR chemical shifts against peptide concentration

binding: binds weakly
Substance: human NHE1 R651-D692 (H2) (from UniProt P19634 651-692) (peptide)
